For experiment [1], the target named is cynomolgus macaque HER3 (cynomolgus macaque) (UniProt G7PIG5). The experiment is described as follows: ELISA, plate-coated target, antibody titrated from 10 µg/ml.
In experiment [2] the target is His-tagged human HER3 (recombinant human HER3 polypeptide) (human) (UniProt P21860). As to the kind of experiment: ELISA, plate-coated human HER3. On the technique in general: ELISA stands for enzyme-linked immunosorbent assay.
Experiment [3] has the same target. As to the kind of experiment: BLI (Octet QK384), antibody on AHC tips, His-tagged human HER3 in solution.
In experiment [4] the target is human HER3 expressed on cells (human) (UniProt P21860). As to the kind of experiment: flow cytometry on HEK293 cells overexpressing human HER3, 20 µg/ml antibody. (In general: In flow cytometry, cells or beads pass a laser one at a time.)
For another experiment, the target named is human HER2 (human) (UniProt P04626). The experiment is described as follows: ELISA, plate-coated target, antibody titrated from 10 µg/ml.
For a further experiment, the target named is human EGFR (human) (UniProt P00533). The description is as above.
A further experiment has as its target mouse HER3 (mouse) (UniProt Q61526). The experiment is described as above.
A further experiment addresses rat HER3 (rat) (UniProt Q62799). The description is as above.

Amino acid sequences for entries named in this document (tags omitted). A change or cut given only in a name is not applied to a line headed by its entry. Chains listed by the source or under a name are the forms on record and can include a tag or linker. Residues count along the entry.
cynomolgus macaque HER3 (G7PIG5, form named): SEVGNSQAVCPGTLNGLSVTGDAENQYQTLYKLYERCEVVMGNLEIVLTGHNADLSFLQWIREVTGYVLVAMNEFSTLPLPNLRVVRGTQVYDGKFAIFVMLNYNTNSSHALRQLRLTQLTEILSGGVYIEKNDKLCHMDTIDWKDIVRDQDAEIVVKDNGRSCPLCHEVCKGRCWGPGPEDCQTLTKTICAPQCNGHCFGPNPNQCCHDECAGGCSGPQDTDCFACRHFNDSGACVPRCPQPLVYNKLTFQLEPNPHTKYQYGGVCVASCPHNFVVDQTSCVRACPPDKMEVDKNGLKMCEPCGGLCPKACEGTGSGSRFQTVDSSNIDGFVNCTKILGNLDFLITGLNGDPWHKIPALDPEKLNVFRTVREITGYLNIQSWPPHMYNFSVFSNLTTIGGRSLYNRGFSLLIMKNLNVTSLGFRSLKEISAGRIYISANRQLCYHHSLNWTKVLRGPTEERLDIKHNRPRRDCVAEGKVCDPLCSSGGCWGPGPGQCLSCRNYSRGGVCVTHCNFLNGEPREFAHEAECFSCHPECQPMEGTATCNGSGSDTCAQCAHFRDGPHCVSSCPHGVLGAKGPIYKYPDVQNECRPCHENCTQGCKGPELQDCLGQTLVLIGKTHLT
UniProt P21860: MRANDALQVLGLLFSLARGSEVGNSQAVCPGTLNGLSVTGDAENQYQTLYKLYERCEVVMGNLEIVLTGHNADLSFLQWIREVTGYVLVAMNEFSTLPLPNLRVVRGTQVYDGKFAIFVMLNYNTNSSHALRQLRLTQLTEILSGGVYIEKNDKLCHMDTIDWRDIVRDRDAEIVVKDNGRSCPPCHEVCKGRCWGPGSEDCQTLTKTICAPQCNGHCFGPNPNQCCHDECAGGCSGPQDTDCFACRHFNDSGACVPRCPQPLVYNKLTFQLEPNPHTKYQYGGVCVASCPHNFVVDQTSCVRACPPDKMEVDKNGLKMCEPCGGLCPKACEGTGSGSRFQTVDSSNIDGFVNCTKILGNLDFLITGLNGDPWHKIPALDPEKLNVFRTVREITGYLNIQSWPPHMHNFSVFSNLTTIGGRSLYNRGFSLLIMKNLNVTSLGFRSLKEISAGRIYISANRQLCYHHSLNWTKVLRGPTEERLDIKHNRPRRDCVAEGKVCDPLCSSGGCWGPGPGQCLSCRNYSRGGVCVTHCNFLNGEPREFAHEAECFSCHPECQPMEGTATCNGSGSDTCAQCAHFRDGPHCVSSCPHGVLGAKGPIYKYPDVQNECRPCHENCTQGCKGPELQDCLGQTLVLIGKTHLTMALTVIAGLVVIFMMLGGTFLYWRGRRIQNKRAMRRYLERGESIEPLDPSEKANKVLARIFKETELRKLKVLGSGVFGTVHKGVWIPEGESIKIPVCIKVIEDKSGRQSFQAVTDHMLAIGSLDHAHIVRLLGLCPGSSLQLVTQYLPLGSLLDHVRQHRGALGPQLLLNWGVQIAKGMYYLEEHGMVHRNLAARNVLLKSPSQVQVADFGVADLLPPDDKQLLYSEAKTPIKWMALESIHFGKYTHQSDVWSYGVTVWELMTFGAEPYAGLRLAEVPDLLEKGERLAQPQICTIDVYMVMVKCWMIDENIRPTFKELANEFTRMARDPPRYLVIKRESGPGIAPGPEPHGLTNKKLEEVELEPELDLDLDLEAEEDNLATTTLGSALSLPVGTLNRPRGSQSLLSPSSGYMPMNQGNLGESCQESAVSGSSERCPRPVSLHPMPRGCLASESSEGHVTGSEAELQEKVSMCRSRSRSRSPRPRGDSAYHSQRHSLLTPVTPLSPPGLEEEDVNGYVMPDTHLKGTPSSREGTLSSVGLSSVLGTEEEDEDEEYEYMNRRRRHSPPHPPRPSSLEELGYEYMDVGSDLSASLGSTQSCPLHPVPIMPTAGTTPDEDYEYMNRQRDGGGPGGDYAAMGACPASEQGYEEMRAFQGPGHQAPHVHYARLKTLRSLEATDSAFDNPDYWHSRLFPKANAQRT
UniProt Q61526, residues 20-641: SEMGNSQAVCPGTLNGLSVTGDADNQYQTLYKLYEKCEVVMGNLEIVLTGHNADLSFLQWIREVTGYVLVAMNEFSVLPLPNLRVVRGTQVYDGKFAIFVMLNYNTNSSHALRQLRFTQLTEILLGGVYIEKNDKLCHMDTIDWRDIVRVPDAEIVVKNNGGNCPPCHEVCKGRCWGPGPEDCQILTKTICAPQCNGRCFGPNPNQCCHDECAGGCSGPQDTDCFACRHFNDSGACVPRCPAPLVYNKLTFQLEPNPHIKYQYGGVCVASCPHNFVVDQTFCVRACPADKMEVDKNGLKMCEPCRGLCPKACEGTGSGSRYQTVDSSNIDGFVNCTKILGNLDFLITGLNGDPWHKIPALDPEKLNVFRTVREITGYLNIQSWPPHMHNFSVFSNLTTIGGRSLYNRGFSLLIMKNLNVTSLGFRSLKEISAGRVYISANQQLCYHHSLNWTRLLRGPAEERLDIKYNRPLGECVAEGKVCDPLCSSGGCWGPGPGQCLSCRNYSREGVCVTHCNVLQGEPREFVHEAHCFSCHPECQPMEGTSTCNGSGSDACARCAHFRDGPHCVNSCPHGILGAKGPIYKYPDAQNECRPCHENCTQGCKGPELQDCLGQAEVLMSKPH
UniProt Q62799, residues 20-643: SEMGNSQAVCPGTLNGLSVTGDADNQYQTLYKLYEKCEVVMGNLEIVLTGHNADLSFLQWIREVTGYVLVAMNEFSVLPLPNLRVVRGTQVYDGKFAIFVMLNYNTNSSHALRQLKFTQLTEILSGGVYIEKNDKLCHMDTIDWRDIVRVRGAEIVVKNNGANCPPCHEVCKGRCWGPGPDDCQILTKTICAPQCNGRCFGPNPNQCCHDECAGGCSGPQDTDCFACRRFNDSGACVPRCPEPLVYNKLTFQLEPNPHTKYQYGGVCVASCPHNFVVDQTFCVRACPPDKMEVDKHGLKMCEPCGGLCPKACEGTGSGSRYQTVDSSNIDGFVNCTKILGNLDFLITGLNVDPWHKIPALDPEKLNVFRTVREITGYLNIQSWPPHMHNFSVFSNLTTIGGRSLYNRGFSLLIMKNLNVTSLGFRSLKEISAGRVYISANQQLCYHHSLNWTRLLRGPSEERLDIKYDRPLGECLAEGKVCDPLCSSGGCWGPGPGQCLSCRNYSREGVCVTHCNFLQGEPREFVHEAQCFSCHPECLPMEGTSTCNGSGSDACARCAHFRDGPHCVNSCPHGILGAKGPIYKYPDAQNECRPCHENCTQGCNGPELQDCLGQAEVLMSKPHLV

Results are given in words; binding and its absence hold for the method and conditions named. Some entries that bind do so weakly or less than the wild type.

B1: anti-HER3 clone 4-35-B2 IgG1 (antibody, V domains shown)
VH: EIQLQQSGPELVKPGASVKVSCKASGYSFTDYNMYWVKQSHGKSLEWIGHINPYNGGTTYNQKFKGRATLTVDKSSSTAFMHLNSLTSEDSAVYFCVSLRWGAMDYWGQGTSVTVSS
VL: QIVLTQSPALMSASPGEKVTMTCSASSSVSYMYWYQQKPRSSPKPWIYLTSNLASGVPARFSGSGSGTSYSLTISSMEAEDAATYYCQQWNSNPYTFGGGTKLEIKR
On to B1, for which the binding result in experiment [1] was “binds”.

B2: anti-HER3 clone 10D1_c85o2 IgG1 (antibody, V domains shown)
VH: DVQLQEWGAGLLKPSETLSLTCAVTGYSITSGYSWHWIRQFPGKGLEWIGSIRYSGGTNYNPSLKSRITISRDTSKNQFSLKLGSVTAADTAVYFCARGTTAPRYPFDYWGQGTLVTVSS
VL: DIVMTQSPSSLSASVGDRVTITCKASQIVGSNVAWYQQKPGKSPKPLIYSARYQYSGVPFRFSGSGSGTDFTLTISSLQPEDVATYYCQQYSSHPLTFGPGTKVEIKR
For B2, the binding entry in experiment [2] and in experiment [3] was “binds” throughout.

B3: 10D1F.FcA (anti-HER3 clone 10D1_c89 IgG1) (antibody, V domains shown)
VH: QVQLQESGPGLVKPSQTLSLTCTVSGYSITSGYSWHWIRQHPGKGLEWIGSIRYSGGTDYNPSLKSLVTISADTSKNQFSLKLSSVTAADTAVYYCARMTTAPWYPFDYWGQGTTVTVSS
VL: DIQMTQSPSSVSASVGDRVTITCKASQIVGSNVAWYQQKPGKAPEPLIYSASYLYSGVPSRFSGSGSGTDFTLTISSLQPEDFATYYCQQYSSHPLTFGQGTKLEIKR
Regarding B3, the binding result in experiment [1] was “binds”.

B4: anti-HER3 clone 4-35-B4 IgG1 (antibody, V domains shown)
VH: EVQLQQSGAELVKPGASVKLSCTASGFNIKDTYIHWVKQRPDQGLEWIGKIIDPANGNTNYDPKFQGKATITADTSSNTAYLQLSSLSSEDTAVYFCARGLHWGQGTTLTVSS
VL: DIVLTQSPASLAVSLGQRATISCRASKSVSTSGYSYMHWYQQKPGQPPKLLIYLASNLESGVPARFSGSGSGTDFTLNIHPVEEEDAATYYCQHSRELPYTFGGGTKLEIKR
Turning to B4, the binding entry (in experiment [4]; in experiment [1]; in the experiment with human HER2 (human); with human EGFR (human); with mouse HER3 (mouse); with rat HER3 (rat)) was “binds” in each case.
